Reference: patent publication US20220204643A1
Read-outs that look alike come from different tables or passages of the source. No constants are given. Whether binding was seen depends on the method and setting. Some binding calls cover weakened binding; strength is not graded here.

The chains behind the UniProt entries cited, without tags or fusion partners. Where a name states a change or a piece, a line headed by the entry shows the natural chain unless it says otherwise.
UniProt Q2MKA7: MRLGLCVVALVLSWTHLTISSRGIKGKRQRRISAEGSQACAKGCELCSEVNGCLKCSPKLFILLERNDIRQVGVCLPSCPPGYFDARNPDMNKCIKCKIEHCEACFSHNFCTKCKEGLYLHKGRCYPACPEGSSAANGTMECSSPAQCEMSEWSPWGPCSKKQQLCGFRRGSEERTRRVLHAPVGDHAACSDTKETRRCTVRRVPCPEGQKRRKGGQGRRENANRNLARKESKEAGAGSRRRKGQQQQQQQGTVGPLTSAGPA
UniProt Q00722: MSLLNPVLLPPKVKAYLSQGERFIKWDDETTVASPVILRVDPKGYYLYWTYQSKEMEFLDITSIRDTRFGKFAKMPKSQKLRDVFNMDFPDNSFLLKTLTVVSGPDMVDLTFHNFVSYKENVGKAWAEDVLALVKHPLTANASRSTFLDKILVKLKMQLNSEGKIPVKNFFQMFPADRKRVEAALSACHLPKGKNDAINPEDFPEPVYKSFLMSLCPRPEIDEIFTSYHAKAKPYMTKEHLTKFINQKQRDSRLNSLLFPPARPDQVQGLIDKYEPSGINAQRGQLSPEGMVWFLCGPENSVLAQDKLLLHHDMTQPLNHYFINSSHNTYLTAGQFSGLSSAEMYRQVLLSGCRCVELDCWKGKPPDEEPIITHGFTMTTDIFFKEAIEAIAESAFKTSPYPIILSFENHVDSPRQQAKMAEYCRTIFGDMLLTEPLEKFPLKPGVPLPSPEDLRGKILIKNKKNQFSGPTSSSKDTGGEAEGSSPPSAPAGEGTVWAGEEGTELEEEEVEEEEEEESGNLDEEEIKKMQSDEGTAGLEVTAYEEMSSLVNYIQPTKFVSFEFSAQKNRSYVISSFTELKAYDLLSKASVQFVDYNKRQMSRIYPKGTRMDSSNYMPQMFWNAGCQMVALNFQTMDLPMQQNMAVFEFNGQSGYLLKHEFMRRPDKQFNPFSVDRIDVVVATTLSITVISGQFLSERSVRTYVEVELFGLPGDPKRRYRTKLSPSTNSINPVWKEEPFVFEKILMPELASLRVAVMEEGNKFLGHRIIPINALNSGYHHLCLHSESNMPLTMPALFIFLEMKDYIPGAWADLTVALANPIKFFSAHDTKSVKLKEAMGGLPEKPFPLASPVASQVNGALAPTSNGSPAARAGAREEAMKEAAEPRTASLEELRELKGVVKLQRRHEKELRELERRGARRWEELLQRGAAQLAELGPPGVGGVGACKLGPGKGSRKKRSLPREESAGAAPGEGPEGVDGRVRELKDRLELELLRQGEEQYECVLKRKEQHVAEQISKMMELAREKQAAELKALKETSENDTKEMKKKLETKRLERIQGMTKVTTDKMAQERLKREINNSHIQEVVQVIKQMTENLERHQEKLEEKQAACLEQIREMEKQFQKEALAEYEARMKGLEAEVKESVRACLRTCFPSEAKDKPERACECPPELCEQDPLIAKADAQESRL
UniProt P19793: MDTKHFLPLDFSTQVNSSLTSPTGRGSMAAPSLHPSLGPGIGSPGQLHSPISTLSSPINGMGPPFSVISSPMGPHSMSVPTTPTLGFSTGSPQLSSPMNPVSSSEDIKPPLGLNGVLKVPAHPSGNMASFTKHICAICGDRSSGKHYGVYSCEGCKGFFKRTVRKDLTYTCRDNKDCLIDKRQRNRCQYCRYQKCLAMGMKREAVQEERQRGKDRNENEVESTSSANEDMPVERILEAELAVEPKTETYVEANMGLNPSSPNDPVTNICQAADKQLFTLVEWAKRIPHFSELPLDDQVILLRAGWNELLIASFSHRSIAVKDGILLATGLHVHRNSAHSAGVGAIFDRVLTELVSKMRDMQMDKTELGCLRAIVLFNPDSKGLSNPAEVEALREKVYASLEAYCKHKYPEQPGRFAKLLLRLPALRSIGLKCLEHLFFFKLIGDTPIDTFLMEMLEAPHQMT

Tests used:
[1] = molecular target: R-spondin 1, transcript variant 2 (human) (UniProt Q2MKA7); experiment: protein array
[2] = molecular target: R-spondin 1, transcript variant 2 (human) (UniProt Q2MKA7)
[3] = molecular target: T1, zinc finger protein 287, transcript variant 2 (human) (UniProt Q9HBT7); experiment: protein array
T1 sequence: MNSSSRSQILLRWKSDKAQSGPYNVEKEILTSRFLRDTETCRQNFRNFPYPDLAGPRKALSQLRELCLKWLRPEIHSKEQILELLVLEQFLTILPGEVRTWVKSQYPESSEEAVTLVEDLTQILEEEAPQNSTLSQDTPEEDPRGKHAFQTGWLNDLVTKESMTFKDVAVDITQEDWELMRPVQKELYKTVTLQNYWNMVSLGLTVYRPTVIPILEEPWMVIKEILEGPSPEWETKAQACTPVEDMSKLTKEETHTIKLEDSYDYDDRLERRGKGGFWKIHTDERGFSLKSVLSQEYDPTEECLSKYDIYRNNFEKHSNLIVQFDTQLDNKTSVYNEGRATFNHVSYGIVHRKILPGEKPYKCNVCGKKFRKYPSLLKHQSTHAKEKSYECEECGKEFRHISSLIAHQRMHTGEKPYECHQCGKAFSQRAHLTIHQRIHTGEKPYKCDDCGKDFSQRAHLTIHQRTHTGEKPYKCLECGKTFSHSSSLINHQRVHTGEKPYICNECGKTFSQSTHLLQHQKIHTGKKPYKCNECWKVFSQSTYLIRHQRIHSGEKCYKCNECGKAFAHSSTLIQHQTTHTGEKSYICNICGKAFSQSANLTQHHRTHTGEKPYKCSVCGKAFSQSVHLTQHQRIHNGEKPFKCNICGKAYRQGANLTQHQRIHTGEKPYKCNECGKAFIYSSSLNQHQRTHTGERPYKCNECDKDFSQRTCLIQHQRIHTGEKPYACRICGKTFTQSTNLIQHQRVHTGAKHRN

[4] = molecular target: T1, zinc finger protein 287, transcript variant 2 (human)
[5] = molecular target: ELK2, member of ETS oncogene family, pseudogene 1 (human) [IgG part: P01859]; experiment: protein array
[6] = molecular target: ELK2, member of ETS oncogene family, pseudogene 1 (human) [IgG part: P01859]
[7] = molecular target: T2, Wnt family member 9b (human) (UniProt O14905); experiment: protein array
T2 sequence: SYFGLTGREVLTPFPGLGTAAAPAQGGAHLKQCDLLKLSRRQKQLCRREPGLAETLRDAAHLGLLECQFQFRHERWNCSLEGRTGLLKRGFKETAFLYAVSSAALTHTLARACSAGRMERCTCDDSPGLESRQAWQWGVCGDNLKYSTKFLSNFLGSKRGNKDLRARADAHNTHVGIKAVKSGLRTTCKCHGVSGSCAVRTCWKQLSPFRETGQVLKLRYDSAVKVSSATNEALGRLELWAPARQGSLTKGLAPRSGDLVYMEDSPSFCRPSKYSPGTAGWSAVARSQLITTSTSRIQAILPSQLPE

[8] = molecular target: T2, Wnt family member 9b (human)
[9] = molecular target: T3, serine and arginine rich splicing factor 3, transcript variant 1 (human) (UniProt P84103); experiment: protein array
T3 sequence: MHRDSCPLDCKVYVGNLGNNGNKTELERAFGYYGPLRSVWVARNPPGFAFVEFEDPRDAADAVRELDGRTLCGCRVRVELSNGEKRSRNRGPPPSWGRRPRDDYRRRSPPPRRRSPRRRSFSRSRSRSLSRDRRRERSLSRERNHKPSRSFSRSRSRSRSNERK

[10] = molecular target: T3, serine and arginine rich splicing factor 3, transcript variant 1 (human)
[11] = molecular target: T4, neutrophil cytosolic factor 4, transcript variant 2 (human); experiment: protein array
T4 sequence: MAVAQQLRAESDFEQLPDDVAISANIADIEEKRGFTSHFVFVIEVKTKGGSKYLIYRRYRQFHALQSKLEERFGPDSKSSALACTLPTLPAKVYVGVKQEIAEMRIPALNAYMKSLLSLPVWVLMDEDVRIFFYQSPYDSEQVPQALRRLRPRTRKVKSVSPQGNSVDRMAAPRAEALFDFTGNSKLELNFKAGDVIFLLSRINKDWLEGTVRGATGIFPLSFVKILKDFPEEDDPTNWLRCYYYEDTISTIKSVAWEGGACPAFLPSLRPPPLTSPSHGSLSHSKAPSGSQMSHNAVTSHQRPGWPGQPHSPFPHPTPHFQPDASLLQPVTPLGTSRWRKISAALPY

[12] = molecular target: phospholipase C beta 2, transcript variant 4 (human) (UniProt Q00722); experiment: protein array
[13] = molecular target: T5, t-complex 11 like 2, transcript variant X2 (human) (UniProt Q8N4U5); experiment: protein array
T5 sequence: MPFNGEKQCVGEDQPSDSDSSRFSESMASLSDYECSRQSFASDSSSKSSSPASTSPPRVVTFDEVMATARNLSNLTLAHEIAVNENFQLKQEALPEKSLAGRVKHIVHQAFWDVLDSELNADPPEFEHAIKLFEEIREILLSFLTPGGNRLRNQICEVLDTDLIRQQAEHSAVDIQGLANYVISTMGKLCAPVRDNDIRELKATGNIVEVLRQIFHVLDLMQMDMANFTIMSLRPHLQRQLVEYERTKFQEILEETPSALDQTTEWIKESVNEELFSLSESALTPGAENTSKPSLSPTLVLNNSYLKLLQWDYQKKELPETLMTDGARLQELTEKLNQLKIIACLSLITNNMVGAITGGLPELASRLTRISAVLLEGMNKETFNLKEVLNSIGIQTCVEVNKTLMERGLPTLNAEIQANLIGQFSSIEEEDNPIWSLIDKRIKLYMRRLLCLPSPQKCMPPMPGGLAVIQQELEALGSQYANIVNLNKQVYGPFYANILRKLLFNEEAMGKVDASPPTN

[14] = molecular target: T4, neutrophil cytosolic factor 4, transcript variant 2 (human)
[15] = molecular target: phospholipase C beta 2, transcript variant 4 (human) (UniProt Q00722)
[16] = molecular target: T5, t-complex 11 like 2, transcript variant X2 (human)
[17] = molecular target: T6, hyaluronan binding protein 4 (human) (UniProt Q5JVS0); experiment: protein array
T6 sequence: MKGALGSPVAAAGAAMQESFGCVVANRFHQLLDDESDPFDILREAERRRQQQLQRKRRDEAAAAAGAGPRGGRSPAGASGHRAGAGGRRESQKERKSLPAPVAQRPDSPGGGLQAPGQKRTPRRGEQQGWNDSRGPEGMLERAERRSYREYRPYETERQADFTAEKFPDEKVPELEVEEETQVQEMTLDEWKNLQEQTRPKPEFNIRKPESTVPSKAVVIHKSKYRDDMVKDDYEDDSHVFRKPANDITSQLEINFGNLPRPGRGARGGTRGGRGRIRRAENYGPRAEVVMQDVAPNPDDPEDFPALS

[18] = molecular target: T6, hyaluronan binding protein 4 (human)
[19] = molecular target: T7, transmembrane protein 154 (human) (UniProt Q6P9G4)
T7 sequence: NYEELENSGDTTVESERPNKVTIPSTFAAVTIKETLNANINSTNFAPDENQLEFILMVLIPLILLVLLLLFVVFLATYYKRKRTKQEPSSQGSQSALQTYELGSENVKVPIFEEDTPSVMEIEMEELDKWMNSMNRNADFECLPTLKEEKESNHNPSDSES

[20] = molecular target: retinoid X receptor alpha, transcript variant 1 (human) (UniProt P19793); experiment: protein array

B1: TBLA1001 (antibody, V domains shown)
VH: EMQLLQSGGGLVQPGGSLRLSCVASEVTFNTYGMSWVRQAPGKGLEWVSYMSGGGGSIFYADSVKGRFTISRDNSKNTLYLQMNSLRGEDTAVYFCARVTLGSYFYGMDVWGQGTTVTVSS
VL: DIQMTQSPSSLSASVGDRVSITCRASQGVSSYLAWYQKKPGRAPKLLIYSASSLQSGVPSRFSGSGSGTDFTLTITGLQPEDFATYFCQQTNTFPLTFGGGTKVEIKR
binding [1]: binds | binding [2]: binds

B2: TLUA1008 (antibody, V domains shown)
VH: EVHLVESGGGFVQPGGSLRLSCAASGFTFSDHYMDWVRQAPGKGLEWVGRIKNRANSYNTEYAASVRGRFTISRDDSNNSLFLQMNSLTAEDTAVYYCARVKLGASSRVFDVWGQGTMVTVSS
VL: EIVLTQSPGTLSLSPGERATLSCRASQSLSSGYLAWYQQKPGQAPRLLIYGASYRATDIPDRFSGSGSGTDFTLTISRLEPEDFAVYYCQQYDNSPLTFGGGTKVEIKR
binding [3]: binds | binding [4]: binds

B3: TLUS1003 (antibody, V domains shown)
VH: QVHLVQSGSEFKKPGASVKISCKTSGYTFTNYAMNWVRQAPGQGLEWVGWINTVTGIPGYAQGFTGRFIISLDTSGRTSYLQINSLQAEDTAVYYCARSGGFGWSRDLDYWGQGTLVTVSS
VL: DIVLTQSPLSLPVTPGEPASISCRSSQSLLHSNGVYYLDWYLLKPGQSPQLVIYMGSSRASGVPDRFSGSGSGTDFRLKISRVEAEDVGIYYCMQALQTPWTFGQGTKVEIKR
binding [5]: binds | binding [6]: binds

B4: TMEL1017 (antibody, V domains shown)
VH: EVQLVESGGGLVKPGGSLRLSCAASGFTFSNYNMNWVRQAPGKGLEWVSSISSSSSYIYYADSVKGRFTISRDNAKNSLYLQMNSLRAEDTAVYYCARDALDFDWLLSAGGFDYWGQGTLVTVSS
VL: ASALTQPASVSGSPGQSITISCTGTSSDVGGYNYVSWYQQHPGKAPKLMIYEVSNRPSGVSNRFSGSKSGNTASLTISGLQAEDEADYYCSSYTSSSTLVFGGGTKLTVLG
binding [7]: binds | binding [8]: binds

B5: TMEL1022 (antibody, V domains shown)
VH: EVQLLESGGGLVHPGGSLRLSCVASGFTFSSYEMTWVRQAPGKGLEWISYISSTGTTTYHADSVRGRFTISRDNAKSSLFLQMNSLRVEDTALYYCARSPAAFGSESYFDSWGQGVLVTVSS
VL: SYVLTQPPSVSVAPGKTATIACGENNIGSYNVNWYQQRPGQAPVLVIHSDSDRPSGISERFSGSNSGNTATLTISRVEAGDEADYYCQVWDTSNDVGVFGGGTKLTVLG
binding [9]: binds | binding [10]: binds

B6: TMES1003 (antibody, V domains shown)
VH: VVQLLESGGGLVQPGGSLRLSCAASGFTFISYAMSWVRQAPGKGLEWVSDISGSGGSTYYADSVKGRLTISRDNSNNTLYLQMNSLRAEDTAVYYCAKEDGYTQNFDYWGQGTLVTVSS
VL: SYVLTQPPSVSVAPGKTARITCGGDNIGSRSVHWYQQKPGQAPVLVIYYDSDRPSGIPERFSGSNSGNTATLTISRVEAGDEADYYCQVWDSSSDHPWVFGGGTKLTVLR
binding [11]: binds | binding [12]: binds | binding [13]: binds | binding [14]: binds | binding [15]: binds | binding [16]: binds

B7: TBRE1004 (antibody, V domains shown)
VH: QVQLVQSGGEVKKPGASVKVSCKASGYNFTNYGISWVRQAPGQGLEWMGWISAYNGNTNYAQKLQGRVTMTTDTPTSTAYMELRSLRSDDTAVYYCARETAGQLIPFDYWGQGTLVTVSS
VL: PYELTQPPSVSVSPGQTARITCSGDALPKQYAYWYQQKPGQAPVLVIYKDSERPSGIPERFSGSSSGTTVTLTISGVQAEDEADYYCQSADSSDTYVFGGGTKLTVLG
binding [17]: binds | binding [18]: binds

B8: TBLA1005 (antibody, V domains shown)
VH: QVQLVQSGAEVKKPGASVKISCKTSGYTFTTYYMHWVRQAPGQGLEWMGIINTSGGSTSYAQKFQGRVTMTRDTSTNTVYMELSSLRYEDTAMYYCARGGDGGPQDAFDIWGQGTKVTVSS
VL: SSELTQDPAVSVALGQTVRITCQGDSLRNYYASWFQQKPGQAPVLVIFGKNYRPSGIPDRFSGSNSGNTASLTITGAQAEDEADYYCNSRDRSGYVFGSGTKVTVLG
binding [19]: binds

B9: TBRE1032 (antibody, V domains shown)
VH: EVQLVESGGGLVQPGGSLRLSCAASGFTFSSYDFHWVRQPTGKGLEWVSAIGTAGDTLYLDSVKGRFTISRENAKNSLYLQMNSLRAGDTAVYYCARVNWNSDTFDSWGQGTLVTVSS
VL: VSSELTQDPAVSVALGQTVRITCQGDSLRRYYASWYQQKAGQAPILVIYGENNRPSGIPDRFSGSGSGNTASLTITGAQAEDEADYYCDSRDSSGNLVVFGGGTKLTVL
binding [17]: binds | binding [18]: binds

B10: TBLA1004 (antibody, V domains shown)
VH: QITLKESGPTLVKPTQTLTLTCTFSGFSLSTSGVGVGWIRQPPGKALEWLALIYWDDDKRYSPSLKSRLTITKDTSKNQVVLTMTNMDPVDTATYYCAHRAIVGLFDYWGQGTLVTVSS
VL: PSVLTQPPSASGTPGQRVTISCSGSSSNIGSNYVYWYQQLPGTAPKFLIYRNNQRPSGVPDRFSGSKSGTSASLAISGLRSEDEADYYCAAWEDSLSGPVFGGGTKLTVL
binding [20]: binds
